Results reported in patent US10912763B2 (priority 2010, dated 2021).

Tested on: painful diabetic neuropathy
Conditions: both, human, in vivo

CN1CC[C@]23c4c5ccc(O)c4O[C@H]2[C@@H](O)C=C[C@H]3[C@H]1C5 [morphine]
TEAEs (%) ECG QT prolonged: 0%
